{"source": "the supplement of paper PMC8728848", "binders": {"B1": {"name": "BSR4 (Toxoplasma gondii), Q95NL6 (protein)", "chain": "MVMMGSMQQRRGGLRSNARQLLAVCMSGVVFFSSGQAVADNLLEGLLHRTLQQQVEVTSRLTVAGSDAKCDFFTPATQDSPPVSGSLTLSKGRMTATFECSATQALSISTIPTNIEQNVCDPKKTTNGTVCQFGANGSAGTEVTLKDLLETDRIVNWKVNEQREESNKSQKWSLELHNEDLPLTDKAFVVGCQATSAARGTESGKTAACKLTVNVEARASSLAENNVVTCAYGKGSNPNPVEVEMSTEKNTLTINCGSDGSLQPTTYAEEYCVADSKDVNRCSTTRFVEIFPKFLKSWWVTETQKRTSATLTIPQTDLPEADQQFLVGCVPKKTAPEDPKKDKESGTETGAPTSCTVLVTVKAASSASHASPTVQILAAASSAAA"}}, "assay_in_all_cases": "glycan array binding signal (z-score within array); higher = stronger binding", "settings_in_all_cases": "glycan notation: IUPAC condensed, linker removed", "key": {"[1]": {"target": "GlcNAc(b1-2)Gal(b1-3)GalNAc", "outline": "(§1)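 The binding signal is a Z-score computed within each array and averaged over linkers. Arrays of the same protein sequence at different concentrations or buffers were also averaged together. Data originate from 3228 arrays in the Consortium for Functional Glycomics database, kept only where the protein sequence was available.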"}, "[2]": {"target": "GlcNAc(b1-2)Man(a1-3)[GlcNAc(b1-2)Man(a1-6)]Man(b1-4)GlcNAc(b1-4)GlcNAc", "outline": "as §1"}, "[3]": {"target": "GlcNAc(b1-2)Man(a1-3)[GlcNAc(b1-2)Man(a1-6)]Man(b1-4)GlcNAc(b1-4)[Fuc(a1-6)]GlcNAc", "outline": "as §1"}, "[4]": {"target": "GlcNAc(b1-2)[GlcNAc(b1-4)]Man(a1-3)[GlcNAc(b1-2)Man(a1-6)]Man(b1-4)GlcNAc(b1-4)GlcNAc", "outline": "as §1"}, "[5]": {"target": "GlcNAc(b1-3)Gal", "outline": "as §1"}, "[6]": {"target": "GlcNAc(b1-3)Gal(b1-3)GalNAc", "outline": "as §1"}, "[7]": {"target": "GlcNAc(b1-3)Gal(b1-4)Glc", "outline": "as §1"}, "[8]": {"target": "GlcNAc(b1-3)Gal(b1-4)GlcNAc", "outline": "as §1"}, "[9]": {"target": "GlcNAc(b1-3)Gal(b1-4)GlcNAc(b1-3)Gal(b1-4)GlcNAc", "outline": "as §1"}, "[10]": {"target": "GlcNAc(b1-3)GalNAc", "outline": "as §1"}, "[11]": {"target": "GlcNAc(b1-3)Man", "outline": "as §1"}, "[12]": {"target": "GlcNAc(b1-3)[GlcNAc(b1-4)][GlcNAc(b1-6)]GlcNAc", "outline": "as §1"}, "[13]": {"target": "GlcNAc(b1-3)[GlcNAc(b1-6)]Gal(b1-4)GlcNAc", "outline": "as §1"}, "[14]": {"target": "GlcNAc(b1-3)[GlcNAc(b1-6)]GalNAc", "outline": "as §1"}, "[15]": {"target": "GlcNAc(b1-4)Gal(b1-4)GlcNAc", "outline": "as §1"}, "[16]": {"target": "GlcNAc(b1-4)GlcNAc", "outline": "as §1"}, "[17]": {"target": "GlcNAc(b1-4)GlcNAc(b1-4)GlcNAc", "outline": "as §1"}, "[18]": {"target": "GlcNAc(b1-4)GlcNAc(b1-4)GlcNAc(b1-4)GlcNAc(b1-4)GlcNAc", "outline": "as §1"}, "[19]": {"target": "GlcNAc(b1-4)GlcNAc(b1-4)GlcNAc(b1-4)GlcNAc(b1-4)GlcNAc(b1-4)GlcNAc", "outline": "as §1"}, "[20]": {"target": "GlcNAc(b1-4)[GlcNAc(b1-6)]GalNAc", "outline": "as §1"}, "[21]": {"target": "GlcNAc(b1-6)Gal(b1-4)GlcNAc", "outline": "as §1"}, "[22]": {"target": "GlcNAc(b1-6)GalNAc", "outline": "as §1"}, "[23]": {"target": "GlcNAc3Prop(b1-4)GlcNAc", "outline": "as §1"}, "[24]": {"target": "GlcNAc6S(b1-3)Gal(b1-4)GlcNAc", "outline": "as §1"}, "[25]": {"target": "Kdn(a2-3)Gal(b1-3)GalNAc", "outline": "as §1"}, "[26]": {"target": "Kdn(a2-3)Gal(b1-3)GlcNAc", "outline": "as §1"}, "[27]": {"target": "Kdn(a2-3)Gal(b1-4)Glc", "outline": "as §1"}, "[28]": {"target": "Kdn(a2-3)Gal(b1-4)GlcNAc", "outline": "as §1"}, "[29]": {"target": "Kdn(a2-3)Gal(b1-4)[Fuc(a1-3)]GlcNAc", "outline": "as §1"}, "[30]": {"target": "Kdn(a2-6)Gal(b1-4)GlcNAc", "outline": "as §1"}, "[31]": {"target": "Man(a1-2)Man(a1-2)Man(a1-3)Man", "outline": "as §1"}, "[32]": {"target": "Man(a1-2)Man(a1-2)Man(a1-6)[Man(a1-3)]Man", "outline": "as §1"}, "[33]": {"target": "Man(a1-2)Man(a1-3)Man", "outline": "as §1"}, "[34]": {"target": "Man(a1-2)Man(a1-3)[Man(a1-2)Man(a1-6)]Man", "outline": "as §1"}, "[35]": {"target": "Man(a1-2)Man(a1-3)[Man(a1-2)Man(a1-6)]Man(a1-6)[Man(a1-2)Man(a1-2)Man(a1-3)]Man", "outline": "as §1"}, "[36]": {"target": "Man(a1-2)Man(a1-3)[Man(a1-2)Man(a1-6)]Man(a1-6)[Man(a1-2)Man(a1-2)Man(a1-3)]Man(b1-4)GlcNAc(b1-4)GlcNAc", "outline": "as §1"}, "[37]": {"target": "Man(a1-2)Man(a1-3)[Man(a1-6)]Man(a1-6)[Man(a1-2)Man(a1-3)]Man(b1-4)GlcNAc(b1-4)GlcNAc", "outline": "as §1"}, "[38]": {"target": "Man(a1-2)Man(a1-6)[Man(a1-3)]Man(a1-6)[Man(a1-2)Man(a1-2)Man(a1-3)]Man", "outline": "as §1"}}, "note": "The other results are listed elsewhere or left out."}
{"binder": "B1", "values": [{"measurement": "glycan array binding signal (z-score)", "setting": "[1]", "value": 0.324}, {"measurement": "glycan array binding signal (z-score)", "setting": "[2]", "value": -0.087}, {"measurement": "glycan array binding signal (z-score)", "setting": "[3]", "value": 7.79}, {"measurement": "glycan array binding signal (z-score)", "setting": "[4]", "value": -0.586}, {"measurement": "glycan array binding signal (z-score)", "setting": "[5]", "value": -0.636}, {"measurement": "glycan array binding signal (z-score)", "setting": "[6]", "value": 1.23}, {"measurement": "glycan array binding signal (z-score)", "setting": "[7]", "value": -0.877}, {"measurement": "glycan array binding signal (z-score)", "setting": "[8]", "value": -0.948}, {"measurement": "glycan array binding signal (z-score)", "setting": "[9]", "value": -0.414}, {"measurement": "glycan array binding signal (z-score)", "setting": "[10]", "value": -0.565}, {"measurement": "glycan array binding signal (z-score)", "setting": "[11]", "value": 0.283}, {"measurement": "glycan array binding signal (z-score)", "setting": "[12]", "value": -0.7}, {"measurement": "glycan array binding signal (z-score)", "setting": "[13]", "value": -0.502}, {"measurement": "glycan array binding signal (z-score)", "setting": "[14]", "value": -0.348}, {"measurement": "glycan array binding signal (z-score)", "setting": "[15]", "value": -0.779}, {"measurement": "glycan array binding signal (z-score)", "setting": "[16]", "value": 0.141}, {"measurement": "glycan array binding signal (z-score)", "setting": "[17]", "value": -0.561}, {"measurement": "glycan array binding signal (z-score)", "setting": "[18]", "value": -0.443}, {"measurement": "glycan array binding signal (z-score)", "setting": "[19]", "value": 0.269}, {"measurement": "glycan array binding signal (z-score)", "setting": "[20]", "value": 0.129}, {"measurement": "glycan array binding signal (z-score)", "setting": "[21]", "value": -0.652}, {"measurement": "glycan array binding signal (z-score)", "setting": "[22]", "value": -0.264}, {"measurement": "glycan array binding signal (z-score)", "setting": "[23]", "value": -0.719}, {"measurement": "glycan array binding signal (z-score)", "setting": "[24]", "value": 0.064}, {"measurement": "glycan array binding signal (z-score)", "setting": "[25]", "value": -0.111}, {"measurement": "glycan array binding signal (z-score)", "setting": "[26]", "value": 1.32}, {"measurement": "glycan array binding signal (z-score)", "setting": "[27]", "value": 0.397}, {"measurement": "glycan array binding signal (z-score)", "setting": "[28]", "value": 0.831}, {"measurement": "glycan array binding signal (z-score)", "setting": "[29]", "value": 0.006}, {"measurement": "glycan array binding signal (z-score)", "setting": "[30]", "value": -0.315}, {"measurement": "glycan array binding signal (z-score)", "setting": "[31]", "value": 0.205}, {"measurement": "glycan array binding signal (z-score)", "setting": "[32]", "value": 0.245}, {"measurement": "glycan array binding signal (z-score)", "setting": "[33]", "value": 0.738}, {"measurement": "glycan array binding signal (z-score)", "setting": "[34]", "value": 0.519}, {"measurement": "glycan array binding signal (z-score)", "setting": "[35]", "value": -0.451}, {"measurement": "glycan array binding signal (z-score)", "setting": "[36]", "value": -0.311}, {"measurement": "glycan array binding signal (z-score)", "setting": "[37]", "value": -0.237}, {"measurement": "glycan array binding signal (z-score)", "setting": "[38]", "value": -0.324}]}
